Source: PMC9253107, “Engineering of ultraID, a compact and hyperactive enzyme for proximity-dependent biotinylation in living cells” (Communications Biology, 2022)
Results are given in words; binding and its absence hold for the method and conditions named. In cells and extracts the contact can be indirect. A yes stands for co-enrichment or nearness to the bait. Other partners may have been found.

By UniProt entry, the sequences of proteins in these tests, tags left out.
UniProt Q9UKV8: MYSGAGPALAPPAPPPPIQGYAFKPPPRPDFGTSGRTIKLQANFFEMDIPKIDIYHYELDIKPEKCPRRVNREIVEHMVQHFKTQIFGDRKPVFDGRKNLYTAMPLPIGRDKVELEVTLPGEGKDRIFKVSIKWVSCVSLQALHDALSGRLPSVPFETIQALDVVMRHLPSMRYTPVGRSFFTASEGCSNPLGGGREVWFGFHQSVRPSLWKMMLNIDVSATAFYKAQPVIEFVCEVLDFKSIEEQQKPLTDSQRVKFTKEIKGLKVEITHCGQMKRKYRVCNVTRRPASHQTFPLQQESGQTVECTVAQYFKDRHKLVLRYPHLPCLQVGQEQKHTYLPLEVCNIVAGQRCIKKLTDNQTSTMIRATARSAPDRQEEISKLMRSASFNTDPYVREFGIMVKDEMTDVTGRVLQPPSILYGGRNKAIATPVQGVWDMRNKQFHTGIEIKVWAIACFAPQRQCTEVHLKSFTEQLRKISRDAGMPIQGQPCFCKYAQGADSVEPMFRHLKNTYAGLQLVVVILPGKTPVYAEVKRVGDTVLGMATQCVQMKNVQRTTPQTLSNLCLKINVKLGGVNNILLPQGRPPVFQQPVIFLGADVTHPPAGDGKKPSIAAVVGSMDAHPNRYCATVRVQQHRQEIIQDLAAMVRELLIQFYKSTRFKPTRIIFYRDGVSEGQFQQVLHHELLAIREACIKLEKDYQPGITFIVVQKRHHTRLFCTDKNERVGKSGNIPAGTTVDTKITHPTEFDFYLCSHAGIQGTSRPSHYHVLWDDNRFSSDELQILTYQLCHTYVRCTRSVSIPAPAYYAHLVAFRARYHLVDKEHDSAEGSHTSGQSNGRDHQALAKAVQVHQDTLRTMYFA
UniProt Q9UPY3: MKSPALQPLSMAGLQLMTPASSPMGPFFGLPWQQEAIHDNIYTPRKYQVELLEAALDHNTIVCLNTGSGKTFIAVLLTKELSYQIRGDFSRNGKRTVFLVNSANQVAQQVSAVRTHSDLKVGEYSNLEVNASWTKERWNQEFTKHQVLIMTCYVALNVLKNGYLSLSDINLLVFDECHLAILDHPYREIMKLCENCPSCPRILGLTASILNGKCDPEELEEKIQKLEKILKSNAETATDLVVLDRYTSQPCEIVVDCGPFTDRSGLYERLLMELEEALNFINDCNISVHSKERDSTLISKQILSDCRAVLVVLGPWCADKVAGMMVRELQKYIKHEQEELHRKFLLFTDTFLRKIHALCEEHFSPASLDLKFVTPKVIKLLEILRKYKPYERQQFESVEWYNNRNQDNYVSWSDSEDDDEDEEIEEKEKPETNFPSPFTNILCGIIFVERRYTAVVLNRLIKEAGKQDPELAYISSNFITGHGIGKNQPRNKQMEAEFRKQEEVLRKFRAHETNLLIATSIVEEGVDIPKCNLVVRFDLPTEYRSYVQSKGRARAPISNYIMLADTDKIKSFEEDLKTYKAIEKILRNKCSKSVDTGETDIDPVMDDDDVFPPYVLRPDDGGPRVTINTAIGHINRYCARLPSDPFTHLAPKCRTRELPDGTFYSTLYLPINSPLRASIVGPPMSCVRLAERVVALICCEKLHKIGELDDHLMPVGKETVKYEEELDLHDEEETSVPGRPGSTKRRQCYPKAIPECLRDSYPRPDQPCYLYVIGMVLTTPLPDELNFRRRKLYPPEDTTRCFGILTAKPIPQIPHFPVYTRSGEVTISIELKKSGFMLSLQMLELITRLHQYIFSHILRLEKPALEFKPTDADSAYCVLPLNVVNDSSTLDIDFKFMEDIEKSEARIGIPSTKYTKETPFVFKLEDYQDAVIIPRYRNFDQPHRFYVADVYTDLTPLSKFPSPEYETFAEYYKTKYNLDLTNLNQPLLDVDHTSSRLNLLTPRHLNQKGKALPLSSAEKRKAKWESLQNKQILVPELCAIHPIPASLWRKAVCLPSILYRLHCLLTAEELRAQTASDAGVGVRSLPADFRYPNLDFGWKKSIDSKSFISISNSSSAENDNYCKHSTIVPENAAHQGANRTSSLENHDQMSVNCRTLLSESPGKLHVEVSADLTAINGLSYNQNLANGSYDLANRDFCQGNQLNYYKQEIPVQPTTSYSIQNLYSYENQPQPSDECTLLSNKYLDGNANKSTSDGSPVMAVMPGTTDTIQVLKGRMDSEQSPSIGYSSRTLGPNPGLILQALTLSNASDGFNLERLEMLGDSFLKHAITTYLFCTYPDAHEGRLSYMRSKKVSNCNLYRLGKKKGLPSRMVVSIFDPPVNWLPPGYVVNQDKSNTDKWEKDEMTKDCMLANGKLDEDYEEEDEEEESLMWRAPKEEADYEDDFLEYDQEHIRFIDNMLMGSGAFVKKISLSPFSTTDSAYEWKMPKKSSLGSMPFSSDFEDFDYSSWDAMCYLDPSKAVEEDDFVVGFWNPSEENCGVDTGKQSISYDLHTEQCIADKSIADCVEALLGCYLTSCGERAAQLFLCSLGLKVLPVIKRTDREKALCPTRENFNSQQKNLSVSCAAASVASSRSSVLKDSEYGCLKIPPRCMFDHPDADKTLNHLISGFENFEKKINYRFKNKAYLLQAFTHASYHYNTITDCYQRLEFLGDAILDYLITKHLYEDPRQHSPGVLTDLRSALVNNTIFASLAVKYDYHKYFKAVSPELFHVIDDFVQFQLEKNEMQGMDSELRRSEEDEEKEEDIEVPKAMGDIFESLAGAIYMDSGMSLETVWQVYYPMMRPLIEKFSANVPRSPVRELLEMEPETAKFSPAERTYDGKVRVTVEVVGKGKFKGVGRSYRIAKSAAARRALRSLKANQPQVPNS
UniProt P51114: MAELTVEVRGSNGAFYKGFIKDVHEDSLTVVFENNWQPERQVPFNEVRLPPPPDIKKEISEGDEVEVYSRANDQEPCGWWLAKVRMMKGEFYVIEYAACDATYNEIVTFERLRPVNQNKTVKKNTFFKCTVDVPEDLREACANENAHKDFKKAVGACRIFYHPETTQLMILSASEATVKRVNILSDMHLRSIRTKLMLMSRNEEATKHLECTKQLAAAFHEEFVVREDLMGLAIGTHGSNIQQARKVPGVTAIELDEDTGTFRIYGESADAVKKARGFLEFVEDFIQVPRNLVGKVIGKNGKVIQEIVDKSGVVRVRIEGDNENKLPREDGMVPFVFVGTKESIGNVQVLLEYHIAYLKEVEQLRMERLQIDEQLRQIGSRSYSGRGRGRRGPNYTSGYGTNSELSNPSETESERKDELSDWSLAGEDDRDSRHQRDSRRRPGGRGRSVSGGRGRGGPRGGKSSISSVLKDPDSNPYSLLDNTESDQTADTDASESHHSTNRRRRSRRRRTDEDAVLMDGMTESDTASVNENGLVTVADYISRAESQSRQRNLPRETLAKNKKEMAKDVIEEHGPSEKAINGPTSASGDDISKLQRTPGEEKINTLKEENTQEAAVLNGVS
UniProt Q14671: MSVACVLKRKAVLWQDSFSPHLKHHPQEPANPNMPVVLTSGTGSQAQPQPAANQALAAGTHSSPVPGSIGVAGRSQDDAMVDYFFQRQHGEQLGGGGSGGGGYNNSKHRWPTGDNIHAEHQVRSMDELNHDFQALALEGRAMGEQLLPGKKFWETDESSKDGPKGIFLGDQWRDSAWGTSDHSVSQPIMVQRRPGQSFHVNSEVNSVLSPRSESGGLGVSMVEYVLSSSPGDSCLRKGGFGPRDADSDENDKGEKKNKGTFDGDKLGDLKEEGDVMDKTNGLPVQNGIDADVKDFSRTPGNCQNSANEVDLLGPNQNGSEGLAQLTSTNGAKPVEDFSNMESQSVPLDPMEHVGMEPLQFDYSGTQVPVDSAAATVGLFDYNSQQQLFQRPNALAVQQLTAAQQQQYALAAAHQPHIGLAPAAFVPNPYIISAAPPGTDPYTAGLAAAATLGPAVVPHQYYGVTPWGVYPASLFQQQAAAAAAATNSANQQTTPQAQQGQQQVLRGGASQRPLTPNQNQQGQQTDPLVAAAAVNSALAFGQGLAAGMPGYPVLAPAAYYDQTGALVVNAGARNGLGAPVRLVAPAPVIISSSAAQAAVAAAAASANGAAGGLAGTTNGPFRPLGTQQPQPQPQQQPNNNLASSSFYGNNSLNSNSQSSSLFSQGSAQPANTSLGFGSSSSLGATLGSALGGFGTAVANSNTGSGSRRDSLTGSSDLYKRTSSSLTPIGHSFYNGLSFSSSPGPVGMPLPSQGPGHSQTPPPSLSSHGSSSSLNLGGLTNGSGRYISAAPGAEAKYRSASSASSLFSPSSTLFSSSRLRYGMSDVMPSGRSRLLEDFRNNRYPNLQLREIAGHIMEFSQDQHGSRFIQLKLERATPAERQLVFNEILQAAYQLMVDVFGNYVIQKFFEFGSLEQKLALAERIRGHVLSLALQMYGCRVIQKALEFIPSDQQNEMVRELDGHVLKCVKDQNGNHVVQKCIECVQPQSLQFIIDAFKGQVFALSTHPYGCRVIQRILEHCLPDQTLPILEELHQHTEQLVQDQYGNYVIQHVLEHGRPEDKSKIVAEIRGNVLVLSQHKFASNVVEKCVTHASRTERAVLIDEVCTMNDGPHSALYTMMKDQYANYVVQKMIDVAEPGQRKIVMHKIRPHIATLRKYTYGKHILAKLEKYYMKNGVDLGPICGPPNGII
UniProt Q9UPQ9: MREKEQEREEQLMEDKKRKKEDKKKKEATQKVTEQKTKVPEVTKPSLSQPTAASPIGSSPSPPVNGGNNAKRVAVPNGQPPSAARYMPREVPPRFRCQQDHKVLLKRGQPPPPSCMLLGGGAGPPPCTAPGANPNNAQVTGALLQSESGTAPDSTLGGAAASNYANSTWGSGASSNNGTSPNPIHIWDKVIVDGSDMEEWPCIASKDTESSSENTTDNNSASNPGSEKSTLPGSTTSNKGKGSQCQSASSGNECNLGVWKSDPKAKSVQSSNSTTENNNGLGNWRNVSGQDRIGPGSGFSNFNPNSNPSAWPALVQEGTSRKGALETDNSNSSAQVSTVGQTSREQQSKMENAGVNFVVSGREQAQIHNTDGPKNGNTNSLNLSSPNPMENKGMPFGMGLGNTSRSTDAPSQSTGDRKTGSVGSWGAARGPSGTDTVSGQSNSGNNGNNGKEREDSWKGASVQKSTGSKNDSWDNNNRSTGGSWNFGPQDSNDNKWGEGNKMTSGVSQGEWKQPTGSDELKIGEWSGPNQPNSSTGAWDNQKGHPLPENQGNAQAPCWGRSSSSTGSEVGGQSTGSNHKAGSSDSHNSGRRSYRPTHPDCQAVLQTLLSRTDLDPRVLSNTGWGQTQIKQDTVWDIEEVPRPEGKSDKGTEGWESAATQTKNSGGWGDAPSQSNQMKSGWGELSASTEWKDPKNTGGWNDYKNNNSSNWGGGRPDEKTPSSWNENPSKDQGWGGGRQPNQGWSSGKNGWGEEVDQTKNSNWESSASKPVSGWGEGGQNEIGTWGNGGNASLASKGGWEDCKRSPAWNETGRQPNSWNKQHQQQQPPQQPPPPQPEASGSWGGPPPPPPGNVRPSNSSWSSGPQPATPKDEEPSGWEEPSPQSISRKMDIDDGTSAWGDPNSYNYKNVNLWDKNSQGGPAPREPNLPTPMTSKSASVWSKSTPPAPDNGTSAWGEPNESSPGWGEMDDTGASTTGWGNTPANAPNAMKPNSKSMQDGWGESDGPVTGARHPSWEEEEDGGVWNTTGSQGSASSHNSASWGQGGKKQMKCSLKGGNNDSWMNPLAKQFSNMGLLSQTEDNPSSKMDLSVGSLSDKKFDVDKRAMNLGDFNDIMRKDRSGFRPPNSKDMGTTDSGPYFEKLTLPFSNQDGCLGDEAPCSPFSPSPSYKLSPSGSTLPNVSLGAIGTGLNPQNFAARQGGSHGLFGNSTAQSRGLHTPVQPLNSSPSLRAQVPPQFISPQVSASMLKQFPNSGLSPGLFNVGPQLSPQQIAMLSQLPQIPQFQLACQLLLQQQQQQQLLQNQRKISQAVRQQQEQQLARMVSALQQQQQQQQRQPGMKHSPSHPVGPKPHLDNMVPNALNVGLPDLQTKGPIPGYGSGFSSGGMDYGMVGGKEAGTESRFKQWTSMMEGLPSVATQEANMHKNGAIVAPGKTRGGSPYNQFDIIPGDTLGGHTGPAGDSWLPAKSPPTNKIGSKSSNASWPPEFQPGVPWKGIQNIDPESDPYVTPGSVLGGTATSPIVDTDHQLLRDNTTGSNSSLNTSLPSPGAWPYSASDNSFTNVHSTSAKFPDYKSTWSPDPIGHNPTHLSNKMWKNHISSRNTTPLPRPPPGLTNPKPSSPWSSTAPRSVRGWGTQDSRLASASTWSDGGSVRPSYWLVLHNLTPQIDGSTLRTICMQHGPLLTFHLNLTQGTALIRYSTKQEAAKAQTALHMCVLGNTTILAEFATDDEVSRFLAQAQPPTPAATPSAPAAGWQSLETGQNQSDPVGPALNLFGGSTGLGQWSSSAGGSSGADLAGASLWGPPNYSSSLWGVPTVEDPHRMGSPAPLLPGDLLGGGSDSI

Columns and labels:
BioID-Ago2 = BioID-Ago2 (UniProt Q9UKV8); test: proximity labelling; BioID-Ago2 in doxycycline-induced HeLa 11ht line, 50 uM biotin overnight (added with doxycycline, 24 h); streptavidin pulldown, on-bead trypsin digestion, LC-MS/MS; enrichment (LFQ, proDA) against BioID-Rab11; four biological replicates
ultraID-Ago2 = ultraID-Ago2 (UniProt Q9UKV8); test: proximity labelling; ultraID-Ago2 or TurboID-Ago2 in doxycycline-induced HeLa 11ht lines, 50 uM biotin for 10 min at 37 °C; streptavidin pulldown in RIPA buffer, on-bead trypsin digestion, LC-MS/MS; enrichment (LFQ, proDA) against the matching Rab11 fusion; four biological replicates
TurboID-Ago2 = TurboID-Ago2 (UniProt Q9UKV8); test: proximity labelling; HeLa 11ht lines expressing TurboID or ultraID fusions of Ago2 or Rab11, no biotin added (background labeling); streptavidin pulldown, LC-MS/MS, abundance by iBAQ; n = 3 (Ago2 lines) or 4 (Rab11 lines)

Row | Substance | binding (BioID-Ago2) | binding (ultraID-Ago2) | binding (TurboID-Ago2)
1 | CNOT1 (from UniProt A5YKK6 1-2376) | binds | binds | –
2 | Dicer (from UniProt Q9UPY3 1-1922) | binds | binds | –
3 | FXR1 (from UniProt P51114 1-621) | – | binds | –
4 | FXR2 (from UniProt P51116 1-673) | – | binds | –
5 | PABPC1 (from UniProt P11940 1-636) | binds | – | –
6 | PUM1 (from UniProt Q14671 1-1186) | – | binds | –
7 | TNRC6A (from UniProt Q8NDV7 1-1962) | – | – | binds
8 | TNRC6B (from UniProt Q9UPQ9 1-1833) | – | – | binds
9 | XRN1 (from UniProt Q8IZH2 1-1706) | binds | binds | –
